This test concerns HIV-1p256. Nature of the test: microbe, parasite or virus in culture. In kind it is cell-based. The following applies: Human immunodeficiency virus 1, HeLa37, 40 h, read-out: IC50 of inhibition of HIV in HeLa 37 cells. Here is the method: Short-term, single hit infectivity studies were performed as previously described. HeLa37 cells were plated in a 48-well tray and triplicate wells were infected with a dual-tropic HIV-1p256 and serial dilutions of P-TEFb inhibitor for 40 hours. The cells were fixed with 75% acetone/25% H2O and immunostained for HIV-1 antigens using human anti-HIV serum (a gift from Dr. Jack Stapleton, Univ. of Iowa) and HRP-conjugated goat anti-human IgG followed by staining with 3-amino-9-ethylcarbazole (AEC). The HIV-1 antigen-positive cells were counted. Experiments were repeated at least three times with each drug concentration in triplicate.

Consider one molecule from PMC1948018 (Retrovirology, 2007).

Take `CC[C@H](CO)Nc1nc(NCc2ccccc2)c2ncn(C(C)C)c2n1` [Seliciclib]: the IC50 came out at 3000 nM.
